Measurements: doi:10.1101/2023.06.14.544957
These are yes or no findings as the source states them, for the method shown. Binding seen in cells or lysates may run through a third protein. Some results given as binding are weak or reduced against the parent protein; the word gives no strength. Where a sequence is shown, tags or fusion partners need not be part of it.

By UniProt entry, the sequences of proteins in these tests, tags left out. Where a name states a change or a piece, a line headed by the entry shows the natural chain unless it says otherwise.
UniProt P22227, whole entry: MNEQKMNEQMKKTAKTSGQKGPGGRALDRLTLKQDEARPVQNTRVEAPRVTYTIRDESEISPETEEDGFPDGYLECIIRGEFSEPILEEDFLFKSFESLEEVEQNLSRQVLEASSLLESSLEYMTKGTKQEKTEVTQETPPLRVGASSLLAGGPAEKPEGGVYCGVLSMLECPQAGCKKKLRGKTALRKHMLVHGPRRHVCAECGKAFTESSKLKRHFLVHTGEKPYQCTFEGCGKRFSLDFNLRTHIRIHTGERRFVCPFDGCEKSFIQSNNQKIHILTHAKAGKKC

Experiments:
Assay in all cases: co-IP
[1] = biological target: T1, HA-tagged mouse RNF12 ΔBR2 (lacking amino acids 348-381) (mouse) (UniProt Q9WTV7)
T1 sequence: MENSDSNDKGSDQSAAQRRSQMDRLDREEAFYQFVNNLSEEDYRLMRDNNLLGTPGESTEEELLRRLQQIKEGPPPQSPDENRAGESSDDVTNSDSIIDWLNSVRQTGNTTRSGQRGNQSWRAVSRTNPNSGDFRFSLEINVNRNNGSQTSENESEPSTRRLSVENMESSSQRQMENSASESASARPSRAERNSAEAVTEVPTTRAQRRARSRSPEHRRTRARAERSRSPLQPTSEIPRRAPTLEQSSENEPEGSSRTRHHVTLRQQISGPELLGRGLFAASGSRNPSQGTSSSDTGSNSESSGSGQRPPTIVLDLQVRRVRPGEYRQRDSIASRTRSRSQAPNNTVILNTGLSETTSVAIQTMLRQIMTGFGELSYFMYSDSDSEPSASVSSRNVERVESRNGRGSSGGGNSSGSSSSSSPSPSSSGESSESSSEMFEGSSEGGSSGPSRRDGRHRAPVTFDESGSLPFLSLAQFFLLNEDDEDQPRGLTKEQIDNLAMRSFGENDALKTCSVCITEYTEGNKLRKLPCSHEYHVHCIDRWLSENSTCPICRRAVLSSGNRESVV

[2] = biological target: T2, HA-tagged mouse RNF12 WT (1-600) (mouse) (UniProt Q9WTV7)
T2 sequence: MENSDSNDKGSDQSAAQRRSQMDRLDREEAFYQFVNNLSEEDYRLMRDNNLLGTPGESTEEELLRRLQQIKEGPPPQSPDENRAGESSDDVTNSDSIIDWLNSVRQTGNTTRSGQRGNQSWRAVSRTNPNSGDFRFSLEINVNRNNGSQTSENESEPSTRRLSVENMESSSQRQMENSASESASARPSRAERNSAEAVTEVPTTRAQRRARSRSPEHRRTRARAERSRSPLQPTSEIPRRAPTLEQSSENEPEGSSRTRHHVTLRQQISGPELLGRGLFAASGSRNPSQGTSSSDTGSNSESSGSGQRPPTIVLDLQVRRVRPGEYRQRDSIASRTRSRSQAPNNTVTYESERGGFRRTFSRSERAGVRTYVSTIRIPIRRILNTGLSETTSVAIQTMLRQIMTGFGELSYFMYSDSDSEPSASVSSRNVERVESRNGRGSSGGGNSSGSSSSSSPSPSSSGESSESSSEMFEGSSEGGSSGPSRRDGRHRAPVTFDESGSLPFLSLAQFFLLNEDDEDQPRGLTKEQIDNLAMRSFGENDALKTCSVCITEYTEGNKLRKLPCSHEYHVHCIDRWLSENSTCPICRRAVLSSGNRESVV

[3] = biological target: T3, HA-tagged mouse RNF12 Δ1-206 (ΔN) (mouse) (UniProt Q9WTV7)
T3 sequence: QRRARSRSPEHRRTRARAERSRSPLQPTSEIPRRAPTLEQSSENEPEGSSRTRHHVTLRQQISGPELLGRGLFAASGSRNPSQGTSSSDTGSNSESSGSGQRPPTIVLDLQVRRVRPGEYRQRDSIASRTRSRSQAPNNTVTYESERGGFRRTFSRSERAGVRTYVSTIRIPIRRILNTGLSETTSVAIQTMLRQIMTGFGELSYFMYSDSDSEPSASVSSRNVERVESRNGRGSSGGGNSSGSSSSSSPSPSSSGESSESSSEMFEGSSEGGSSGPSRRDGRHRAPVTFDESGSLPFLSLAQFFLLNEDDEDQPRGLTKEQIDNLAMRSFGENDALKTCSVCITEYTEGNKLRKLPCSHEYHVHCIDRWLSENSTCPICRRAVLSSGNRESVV

Measured: binding

FLAG-REX1 (from UniProt P22227 1-288)
binds: all assays above
